# Results of single-concentration screens

Measurements from “University of Dundee, Small-Polar-MMV Screening Library” (2021), ChEMBL document CHEMBL3988442.

Values are the deposited “Percent Effect”, in %.
The controls that fix the scale are not given in the record; negative values are as filed.
This is an unselected part of the compounds tested.

Mtb cholesterol medium: 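Whole-cell growth test on Mycobacterium tuberculosis, read after 4 days in a medium based on cholesterol and the lipid DPPC; the read-out is not stated. Concentration: 500 µM. The record gives no direction; compounds that gave an IC50 in retests scored well above the rest, so higher reads as more growth inhibition. Size under these conditions: about 18,000 compounds, about 900 of them at 50% or above in at least one test.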
Mtb glucose medium: 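Phenotypic screen: M. tuberculosis growth, glucose 7H9 medium, 3 days; the read-out is not stated. Tested at 500 µM. Direction is inferred from retests: higher values go with more growth inhibition. About 18,000 compounds were tested under these conditions; 7.9% (about 1,400) showed 50% or more at least once.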

{"compound": "COCCNC(=O)CN1CCCC(C(F)(F)F)C1", "stereo": "centres unmarked", "Mtb cholesterol medium": 22.08, "Mtb glucose medium": 44.63}
{"compound": "CCCc1nnc(NC(=O)c2cccnc2OCC)s1", "Mtb cholesterol medium": -19.67, "Mtb glucose medium": -8.35}
{"compound": "COCCN1CCCN(c2nccc(C)n2)CC1=O", "Mtb cholesterol medium": 4.414, "Mtb glucose medium": 18.95}
{"compound": "CNS(=O)(=O)c1cccc(NC(=O)NCC(F)(F)F)c1", "Mtb cholesterol medium": -5.628, "Mtb glucose medium": -4.369}
{"compound": "COC(=O)N1CCCC(NC(=O)NC(C)C)C1", "stereo": "centres unmarked", "Mtb cholesterol medium": 2.65, "Mtb glucose medium": -1.427}
{"compound": "CN(C)C(=O)c1cccc(S(C)(=O)=O)c1", "Mtb cholesterol medium": 5.933, "Mtb glucose medium": 16.14}
{"compound": "O=C(NCCCn1nccc1C1CC1)c1cn[nH]c1", "Mtb cholesterol medium": 6.089, "Mtb glucose medium": 26.37}
{"compound": "OCC1Cc2ccccc2N1", "stereo": "centres unmarked", "Mtb cholesterol medium": -11.36, "Mtb glucose medium": 5.635}
{"compound": "CC(C)C(=O)NCCCNC(=O)c1ccc(F)cc1O", "Mtb cholesterol medium": 50.74, "Mtb glucose medium": 64.39}
{"compound": "O=C(Nc1cccc(Cl)c1)C1CCCN1", "stereo": "centres unmarked", "Mtb cholesterol medium": 51.77, "Mtb glucose medium": 42.03}
{"compound": "O=C1CN(C(=O)c2cnc(-c3ccccc3)s2)CCN1", "Mtb cholesterol medium": -17.01, "Mtb glucose medium": 1.424}
{"compound": "CCOc1ccccc1-n1c(C)cc(=O)[nH]c1=O", "Mtb cholesterol medium": -2.816, "Mtb glucose medium": -1.189}
{"compound": "O=C(NC1CC1)C1CCCN1", "stereo": "centres unmarked", "Mtb cholesterol medium": -3.007, "Mtb glucose medium": -3.543}
{"compound": "Nc1ncn(Cc2cccc(Cl)c2)n1", "Mtb cholesterol medium": 6.851, "Mtb glucose medium": 21.6}
{"compound": "CCN1CCN(CC(C)CNc2cccc(C)n2)CC1", "stereo": "centres unmarked", "Mtb cholesterol medium": -16.7, "Mtb glucose medium": 2.499}
{"compound": "OCCn1c(CO)nc2ccccc21", "Mtb cholesterol medium": 11.31, "Mtb glucose medium": 1.945}
{"compound": "CCC(=O)NCCCN1CCc2ccccc2C1", "Mtb cholesterol medium": 7.026, "Mtb glucose medium": 21.11}
{"compound": "CCn1ccc(C(=O)NC(C)c2ccccc2)n1", "stereo": "centres unmarked", "Mtb cholesterol medium": 74.57, "Mtb glucose medium": 76.34}
{"compound": "NC1CCN(c2ncc(C(F)(F)F)cc2Cl)C1", "stereo": "centres unmarked", "Mtb cholesterol medium": 89.21, "Mtb glucose medium": 84.57}
{"compound": "COCC(=O)N1CCCN(CCn2cc(Cl)cn2)CC1", "Mtb cholesterol medium": -4.726, "Mtb glucose medium": 3.919}
{"compound": "CN(Cc1cccn1C)C(=O)c1ccccc1F", "Mtb cholesterol medium": 49.36, "Mtb glucose medium": 58.97}
{"compound": "NS(=O)(=O)CCCC(=O)N1CCCC(c2ncc[nH]2)C1", "stereo": "centres unmarked", "Mtb cholesterol medium": 15.39, "Mtb glucose medium": 2.774}
{"compound": "CCC(NC(=O)CSc1ccccn1)c1ccncc1", "stereo": "centres unmarked", "Mtb cholesterol medium": -12.19, "Mtb glucose medium": 3.091}
{"compound": "Cc1cc(C(=O)N2C[C@@H](CO)[C@H](N(C)C)C2)c(C)o1", "Mtb cholesterol medium": 10.24, "Mtb glucose medium": 17.62}
{"compound": "CCc1ccccc1NC(=O)C1CC(=O)C1", "Mtb cholesterol medium": 0.4016, "Mtb glucose medium": 4.585}
{"compound": "CC(C(=O)NC(N)=O)N(C)Cc1ccc(F)cc1F", "stereo": "centres unmarked", "Mtb cholesterol medium": -0.3302, "Mtb glucose medium": 5.244}
{"compound": "CC(C)c1ccnc(N2CCNCC2)n1", "Mtb cholesterol medium": 24.49, "Mtb glucose medium": 30.46}
{"compound": "OCC(O)c1cc2n(n1)CCN(Cc1ccoc1)C2", "stereo": "centres unmarked", "Mtb cholesterol medium": -14.1, "Mtb glucose medium": -9.073}
{"compound": "CN(CCCC1CCCO1)C(=O)c1cccc(N)n1", "stereo": "centres unmarked", "Mtb cholesterol medium": 0.9173, "Mtb glucose medium": 6.167}
{"compound": "CC(C)[C@H](N)C(=O)N1CCOC2(CCCC2)C1", "Mtb cholesterol medium": -11.75, "Mtb glucose medium": -8.495}
{"compound": "CCC(NC(=O)c1cnc(O)cn1)c1nc(C)c(C)s1", "stereo": "centres unmarked", "Mtb cholesterol medium": -1.004, "Mtb glucose medium": 7.101}
{"compound": "N#Cc1cccc(CNc2ccc(OCCO)nc2)c1", "Mtb cholesterol medium": -16.7, "Mtb glucose medium": -20.34}
{"compound": "NCC(O)c1cc(Cl)c2c(c1)OCCO2", "stereo": "centres unmarked", "Mtb cholesterol medium": 37.04, "Mtb glucose medium": 46.98}
{"compound": "CC(=O)NC1CCCN(c2cncc(Cl)n2)C1", "stereo": "centres unmarked", "Mtb cholesterol medium": 7.284, "Mtb glucose medium": 4.398}
{"compound": "C=C(C)CN1CCN(CC(=C)C)C(C(=O)N(C)C)C1", "stereo": "centres unmarked", "Mtb cholesterol medium": 0.6462, "Mtb glucose medium": 7.411}
{"compound": "[H][C@]12CCC[C@@]([H])(CN(CCC(=O)Nc3cccnc3)C1)C2", "Mtb cholesterol medium": 45.91, "Mtb glucose medium": 33.74}
{"compound": "CCC(=O)N(Cc1ccccc1)CC(C)(C)O", "Mtb cholesterol medium": -5.982, "Mtb glucose medium": -0.7178}
{"compound": "CN(Cc1ccncc1)c1cc(C(N)=O)ccn1", "Mtb cholesterol medium": 1.167, "Mtb glucose medium": 7.322}

4 of the entries, repeated:

Compound,Mtb cholesterol medium,Mtb glucose medium
CC(C)c1ccnc(N2CCNCC2)n1,24.49,30.46
CCn1ccc(C(=O)NC(C)c2ccccc2)n1 (centres unmarked),74.57,76.34
COC(=O)N1CCCC(NC(=O)NC(C)C)C1 (centres unmarked),2.65,-1.427
CN(CCCC1CCCO1)C(=O)c1cccc(N)n1 (centres unmarked),0.9173,6.167